# Primary screen of a compound library

Source: ChEMBL document CHEMBL3988442, “University of Dundee, Small-Polar-MMV Screening Library” (2021).

Mtb heat-shock: 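Assay on Mycobacterium tuberculosis, filed only as a heat shock assay from Cornell; the read-out is not stated. The concentration is filed as 10 mM, unlikely as a test dose, so the dose is not known. The record gives no direction; compounds that gave an IC50 in retests scored well above the rest, so higher reads as stronger inhibition. Of about 69,000 compounds tested this way, about 930 (1.4%) reached 50% or more in at least one test.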
Mtb growth Cornell: 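Whole-cell assay for inhibitors of Mycobacterium tuberculosis growth, labelled Cornell in the record; the read-out is not stated. The concentration is filed as 10 mM, unlikely as a test dose, so the dose is not known. Higher means stronger inhibition (inferred from two other growth screens of the library). About 53,000 compounds were tested under these conditions; 1.7% (about 900) showed 50% or more at least once.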

Values are the deposited “Percent Effect”, in %. The record does not define 0% and 100%; most values in the screen are far below 50% and negative numbers occur (in some assays of this library far below -100). The compounds are a random part of those screened. A dash means the value is not listed here; it may have been measured.

CC(C)NC(=O)N(C)C(c1cccc(F)c1)c1ccccn1 (centres unmarked) gave Mtb heat-shock: 4.214%. Result for Cc1cc(C2CCCN2C(=O)c2cc3c(s2)CCC3)no1 (centres unmarked) was Mtb heat-shock: 9.29%. CC1CCCCN1C(=O)c1ccn(COc2ccc(F)cc2)n1 (centres unmarked) gave Mtb heat-shock: -17.79%. CN(C)C(=O)N1Cc2nnn(C)c2C(COCC2CC2)C1 (centres unmarked) read Mtb heat-shock: 13.44%; Mtb growth Cornell: 12.73%. COc1ccc(Cl)cc1CC(=O)N1CCN(CCO)CC1 read Mtb heat-shock: -3.511%; Mtb growth Cornell: -0.764%. Result for Cc1nc(-c2cccs2)ccc1C(=O)N1CCN(CCO)CC1 was Mtb heat-shock: -10.99%; Mtb growth Cornell: 33.71%. O=C(O)C(F)(F)F.O=C(c1ccsc1)N1CCC2(CCN(Cc3ccccn3)C2=O)C1 (centres unmarked) gave Mtb heat-shock: -4.877%; Mtb growth Cornell: 20.22%.

Cc1cc2nc(CN(C)c3ccc(Cl)cc3)cc(=O)n2o1 gave Mtb heat-shock: 4.725%; Mtb growth Cornell: 1.53%. Result for Cc1cccc(NC(=O)N2CCCn3cnc(CN4CCCC4)c3C2)c1.O=C(O)C(F)(F)F was Mtb heat-shock: 10.61%; Mtb growth Cornell: -3.36%. Result for COc1c(C(=O)N2CCC(COCc3ccccc3)C2)c(C)nn1C (centres unmarked) was Mtb heat-shock: -4.411%. Result for CC(=O)Nc1ccc(CN2CCc3[nH]cnc3C2c2ccc(C)o2)cc1 (centres unmarked) was Mtb heat-shock: 2.549%; Mtb growth Cornell: 6.834%. With COCCN1CCN(CC(O)c2cc(OC)ccc2OC)CC1 (centres unmarked) the screen gave Mtb heat-shock: 9.775%; Mtb growth Cornell: 18.23%. [H][C@]12CN(Cc3cc(F)cc(F)c3)CC[C@@]1(O)CCN(S(=O)(=O)N(C)C)C2 gave Mtb heat-shock: 3.133%; Mtb growth Cornell: -15.7%. With CCc1nnc(SC2CCCN(c3cccc(F)c3)C2=O)n1C (centres unmarked) the screen gave Mtb heat-shock: -5.466%; Mtb growth Cornell: -2.915%.

With CSCC(=O)N(C)Cc1noc(-c2ccccc2)n1 the screen gave Mtb heat-shock: 13.07%; Mtb growth Cornell: 10.94%. Result for COC(C)(C)CC(C)NCc1cc(-c2ccco2)on1 (centres unmarked) was Mtb heat-shock: 2.164%; Mtb growth Cornell: -7.644%. Result for Cc1ccc(CNC(=O)CNCC2CCN(CCO)CC2)s1 was Mtb heat-shock: -9.089%; Mtb growth Cornell: -18.92%. For CCS(=O)(=O)N1Cc2nccn2CC(Cn2cncn2)C1 (centres unmarked) the result was Mtb heat-shock: 14.39%; Mtb growth Cornell: 9.365%. With COCC1CCCN(C(=O)c2ccccc2NCc2cccnc2)C1 (centres unmarked) the screen gave Mtb heat-shock: -16.4%; Mtb growth Cornell: 4.014%. Result for CCn1ccc(C(=O)N2CCCC2(C)c2nc(C)cc(N(C)C)n2)n1 (centres unmarked) was Mtb heat-shock: 0.4672%; Mtb growth Cornell: -7.993%. COCCNC(=O)[C@H]1CN2CCC1C[C@@H]2Cn1cc(C(C)(C)C)nn1 (some centres unmarked) read Mtb heat-shock: -5.965%; Mtb growth Cornell: 25.84%.

Result for Cc1nc2cc(NC(=O)Cn3ncc(N4CCCC4)cc3=O)ccc2s1 was Mtb heat-shock: -8.838%; Mtb growth Cornell: 1.412%. Cc1ccc(S(=O)(=O)NC2=NCN(CCc3cccs3)CN2)cc1 gave Mtb heat-shock: 3.91%; Mtb growth Cornell: -5.965%. Result for COCc1ncc(CN(Cc2ccncc2)Cc2ccc(C)s2)cn1 was Mtb heat-shock: -15.22%; Mtb growth Cornell: 34.4%. COCc1ccccc1NCc1csc(NC(C)=O)n1 read Mtb heat-shock: -1.618%; Mtb growth Cornell: 8.294%. Cc1cc(C)nc(N2CCCC(Cn3cc(CN(C)C)nn3)C2)n1 (centres unmarked) read Mtb heat-shock: -38.91%. With O=c1c2ccccc2ncn1Cc1cc(C2CC2)[nH]n1 the screen gave Mtb heat-shock: 5.304%. O=C(CCc1cscn1)N1CCCC(n2ccnc2)C1 (centres unmarked) gave Mtb heat-shock: -11.63%.

O=S(=O)(NC(CO)Cc1c[nH]c2ccccc12)c1cncc(F)c1 (centres unmarked) gave Mtb heat-shock: 10.84%; Mtb growth Cornell: 22.62%. For CCC(c1nc(CC(C)C)nn1-c1ccccn1)n1cccn1 (centres unmarked) the result was Mtb heat-shock: -1.742%; Mtb growth Cornell: 19.14%. Result for NCCC(=O)N1CCC2(CC1)CN(C(=O)c1ccc(Cl)cc1)CCO2 was Mtb heat-shock: 0.3352%. Result for CCN1CC2(CC1=O)CN(C(=O)c1ccco1)CCN(C(=O)C(C)C)C2 (centres unmarked) was Mtb heat-shock: -7.527%; Mtb growth Cornell: 1.237%. Result for COc1ccccc1C(=O)N1CCOCC1c1c(C)n[nH]c1C (centres unmarked) was Mtb heat-shock: 10.68%. CC(NC(=O)CNc1cc2c(cc1Cl)NC(=O)CO2)c1ccco1 (centres unmarked) gave Mtb heat-shock: -8.848%; Mtb growth Cornell: -45.91%.

Repeated from the top, 4 entries:

structure,Mtb heat-shock,Mtb growth Cornell
CC(C)NC(=O)N(C)C(c1cccc(F)c1)c1ccccn1 (centres unmarked),4.214%,-
Cc1cc(C2CCCN2C(=O)c2cc3c(s2)CCC3)no1 (centres unmarked),9.29%,-
CC1CCCCN1C(=O)c1ccn(COc2ccc(F)cc2)n1 (centres unmarked),-17.79%,-
CN(C)C(=O)N1Cc2nnn(C)c2C(COCC2CC2)C1 (centres unmarked),13.44%,12.73%